Values from PubChem BioAssay AID504764 (Drosophila RNAi Screening Center, 2011).
The screen tested about 22,000 reagents; this is an unselected part of those with a known target gene and a result. In the full data, 403 (1.9%) got an active call. 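Unnormalised raw counts per well; ratio z-scores behind the hit calls and whether each hit raises or lowers signal are not deposited.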 Not given: the amount of reagent.

- Screen: 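Genes whose knock-down alters Notch-dependent transcription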 (primary screen)
- Cell system: Drosophila Kc167 cells
- Knock-down reagent: long dsRNA against Drosophila genes
- Timing: about 5 days (4 days dsRNA, then 24 h after transfection)
- Challenge: transfection of constitutively active membrane-tethered Notch lacking the extracellular domain, read 24 h later
- Measured: 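Firefly luciferase from an E(spl)m3 reporter with active Notch, plus control-promoter and uninduced reporter wells for normalisation; unnormalised counts, duplicate wells a and b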
- Direction: induced reporter light, run 1, well a and induced reporter light, run 1, well b: higher = more light from the Notch target reporter with active Notch; control promoter light, run 1, well a and control promoter light, run 1, well b: higher = more light from the viral control promoter (cell number, transfection, viability); uninduced reporter light, run 1, well a: higher = more light from the Notch target reporter without active Notch
- Hit rule: 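Hit if the duplicate-averaged log2 ratio of induced to control-promoter light gives a plate-wise z beyond ±2, or induced to uninduced beyond ±1.8; weak-control or discordant-duplicate wells dropped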
- Calls: active = modifier hit (raised or lowered Notch signal); inactive = not a hit

{"gene knocked down": "CG14454", "amplicon": "DRSC11711", "induced reporter light, run 1, well a": 1.15e5, "induced reporter light, run 1, well b": 78605, "control promoter light, run 1, well a": 1.01e5, "control promoter light, run 1, well b": 1.17e5, "uninduced reporter light, run 1, well a": 6400, "activity call": "inactive"}
{"gene knocked down": "CG6432", "amplicon": "DRSC16039", "induced reporter light, run 1, well a": 1.41e5, "induced reporter light, run 1, well b": 1.72e5, "control promoter light, run 1, well a": 2.06e5, "control promoter light, run 1, well b": 2.22e5, "uninduced reporter light, run 1, well a": 13940, "activity call": "inactive"}
{"gene knocked down": "Rrp1 (Recombination repair protein 1)", "amplicon": "DRSC00784", "induced reporter light, run 1, well a": 3.00e5, "induced reporter light, run 1, well b": 2.23e5, "control promoter light, run 1, well a": 3.46e5, "control promoter light, run 1, well b": 2.69e5, "uninduced reporter light, run 1, well a": 16190, "activity call": "inactive"}
{"gene knocked down": "ClC-c (Chloride channel-c)", "amplicon": "DRSC10499", "induced reporter light, run 1, well a": 1.02e5, "induced reporter light, run 1, well b": 1.01e5, "control promoter light, run 1, well a": 84820, "control promoter light, run 1, well b": 75835, "uninduced reporter light, run 1, well a": 7995, "activity call": "inactive"}
{"gene knocked down": "Lim3", "amplicon": "DRSC02475", "induced reporter light, run 1, well a": 62280, "induced reporter light, run 1, well b": 40845, "control promoter light, run 1, well a": 54740, "control promoter light, run 1, well b": 37880, "uninduced reporter light, run 1, well a": 2455, "activity call": "inactive"}
{"gene knocked down": "Lim3", "amplicon": "DRSC03363", "induced reporter light, run 1, well a": 27690, "induced reporter light, run 1, well b": 33880, "control promoter light, run 1, well a": 16632, "control promoter light, run 1, well b": 13695, "uninduced reporter light, run 1, well a": 3790, "activity call": "inactive"}
{"gene knocked down": "Lim3", "amplicon": "DRSC22183", "activity call": "inactive"}
{"gene knocked down": "Osi19 (Osiris 19)", "amplicon": "DRSC12569", "induced reporter light, run 1, well a": 75890, "induced reporter light, run 1, well b": 90330, "control promoter light, run 1, well a": 85530, "control promoter light, run 1, well b": 56995, "uninduced reporter light, run 1, well a": 5782, "activity call": "inactive"}
{"gene knocked down": "CG42331", "amplicon": "DRSC14633", "induced reporter light, run 1, well a": 1.69e5, "induced reporter light, run 1, well b": 1.55e5, "control promoter light, run 1, well a": 1.82e5, "control promoter light, run 1, well b": 1.64e5, "uninduced reporter light, run 1, well a": 14428, "activity call": "inactive"}
{"gene knocked down": "CG42331", "amplicon": "DRSC16126", "induced reporter light, run 1, well a": 1.55e5, "induced reporter light, run 1, well b": 1.48e5, "control promoter light, run 1, well a": 1.25e5, "control promoter light, run 1, well b": 1.65e5, "uninduced reporter light, run 1, well a": 9915, "activity call": "inactive"}
{"gene knocked down": "CG14207", "amplicon": "DRSC19562", "induced reporter light, run 1, well a": 1.48e5, "induced reporter light, run 1, well b": 1.54e5, "control promoter light, run 1, well a": 1.33e5, "control promoter light, run 1, well b": 85760, "uninduced reporter light, run 1, well a": 10765, "activity call": "inactive"}
{"gene knocked down": "CG14207", "amplicon": "DRSC19563", "induced reporter light, run 1, well a": 66810, "induced reporter light, run 1, well b": 84840, "control promoter light, run 1, well a": 75605, "control promoter light, run 1, well b": 91065, "uninduced reporter light, run 1, well a": 9350, "activity call": "inactive"}
{"gene knocked down": "sofe", "amplicon": "DRSC19751", "induced reporter light, run 1, well a": 1.97e5, "induced reporter light, run 1, well b": 1.92e5, "control promoter light, run 1, well a": 2.42e5, "control promoter light, run 1, well b": 2.62e5, "uninduced reporter light, run 1, well a": 16185, "activity call": "inactive"}
{"gene knocked down": "CG4364", "amplicon": "DRSC02742", "induced reporter light, run 1, well a": 1.45e5, "induced reporter light, run 1, well b": 1.40e5, "control promoter light, run 1, well a": 1.50e5, "control promoter light, run 1, well b": 1.59e5, "uninduced reporter light, run 1, well a": 10332, "activity call": "inactive"}
{"gene knocked down": "Exd2 (Exonuclease 3'-5' domain-containing 2)", "amplicon": "DRSC16105", "induced reporter light, run 1, well a": 1.57e5, "induced reporter light, run 1, well b": 1.62e5, "control promoter light, run 1, well a": 1.88e5, "control promoter light, run 1, well b": 1.32e5, "uninduced reporter light, run 1, well a": 9415, "activity call": "inactive"}
{"gene knocked down": "CG6769", "amplicon": "DRSC20006", "induced reporter light, run 1, well a": 1.12e5, "induced reporter light, run 1, well b": 1.47e5, "control promoter light, run 1, well a": 1.20e5, "control promoter light, run 1, well b": 76190, "uninduced reporter light, run 1, well a": 11385, "activity call": "inactive"}
{"gene knocked down": "skd (skuld)", "amplicon": "DRSC11898", "induced reporter light, run 1, well a": 27755, "induced reporter light, run 1, well b": 22250, "control promoter light, run 1, well a": 19465, "control promoter light, run 1, well b": 20292, "uninduced reporter light, run 1, well a": 2580, "activity call": "inactive"}
{"gene knocked down": "CG14419", "amplicon": "DRSC17916", "induced reporter light, run 1, well a": 1.12e5, "induced reporter light, run 1, well b": 1.08e5, "control promoter light, run 1, well a": 2.06e5, "control promoter light, run 1, well b": 1.91e5, "uninduced reporter light, run 1, well a": 8295, "activity call": "inactive"}

Records listed so far whose gene name begins with L or l (3):
{"gene knocked down": "Lim3", "amplicon": "DRSC02475", "induced reporter light, run 1, well a": 62280, "induced reporter light, run 1, well b": 40845, "control promoter light, run 1, well a": 54740, "control promoter light, run 1, well b": 37880, "uninduced reporter light, run 1, well a": 2455, "activity call": "inactive"}
{"gene knocked down": "Lim3", "amplicon": "DRSC03363", "induced reporter light, run 1, well a": 27690, "induced reporter light, run 1, well b": 33880, "control promoter light, run 1, well a": 16632, "control promoter light, run 1, well b": 13695, "uninduced reporter light, run 1, well a": 3790, "activity call": "inactive"}
{"gene knocked down": "Lim3", "amplicon": "DRSC22183", "activity call": "inactive"}
